From the supplement of paper PMC9233669
Variants at the background level are over-represented here.

How the values were obtained:
biotinyl-Phe-oxazolone = assay: self-aminoacylation, catalytic enhancement (BFO) (fold over background); higher = more active; k-Seq, kA / k0A0; sequences stand for … in GGGAAUGGAUCCACAUCUACGAAUUC…UUCACUGCAGACUUGACGAAGCUG
In short: (§1)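 Working in 50 μL HEPES/NaCl/KCl/MgCl2/CaCl2 buffer with 5% acetonitrile at pH 6.9–7.0, mutagenized RNA pools (0.43 μM; 21-nt variable region) were reacted with 2–1250 μM of each biotinyl-aminoacyl-oxazolone for 90 minutes at room temperature. Streptavidin capture followed, with quantification by triplicate qPCR and Illumina sequencing. Catalytic enhancement is reported as median kA over the uncatalyzed rate, the low-activity peak of a bimodal Gaussian fit to the data.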

biotinyl-Met-oxazolone = assay: self-aminoacylation, catalytic enhancement (BMO) (fold over background); higher = more active; k-Seq, kA / k0A0; sequences stand for … in GGGAAUGGAUCCACAUCUACGAAUUC…UUCACUGCAGACUUGACGAAGCUG
In short: as §1

biotinyl-Val-oxazolone = assay: self-aminoacylation, catalytic enhancement (BVO) (fold over background); higher = more active; k-Seq, kA / k0A0; sequences stand for … in GGGAAUGGAUCCACAUCUACGAAUUC…UUCACUGCAGACUUGACGAAGCUG
In short: as §1

biotinyl-Ile-oxazolone = assay: self-aminoacylation, catalytic enhancement (BIO) (fold over background); higher = more active; k-Seq, kA / k0A0; sequences stand for … in GGGAAUGGAUCCACAUCUACGAAUUC…UUCACUGCAGACUUGACGAAGCUG
In short: as §1

biotinyl-Trp-oxazolone = assay: self-aminoacylation, catalytic enhancement (BWO) (fold over background); higher = more active; k-Seq, kA / k0A0; sequences stand for … in GGGAAUGGAUCCACAUCUACGAAUUC…UUCACUGCAGACUUGACGAAGCUG
In short: as §1

biotinyl-Leu-oxazolone = assay: self-aminoacylation, catalytic enhancement (BLO) (fold over background); higher = more active; k-Seq, kA / k0A0; sequences stand for … in GGGAAUGGAUCCACAUCUACGAAUUC…UUCACUGCAGACUUGACGAAGCUG
In short: as §1

Sequence	self-aminoacylation (biotinyl-Phe-oxazolone)	self-aminoacylation (biotinyl-Met-oxazolone)	self-aminoacylation (biotinyl-Val-oxazolone)	self-aminoacylation (biotinyl-Ile-oxazolone)	self-aminoacylation (biotinyl-Trp-oxazolone)	self-aminoacylation (biotinyl-Leu-oxazolone)
CCACACUUCUAGCGAUCGGUC [Fam1B.1 aminoacylation ribozyme variant]	0.635	0.839	1.02	0.985	0.736	1.06
CCACAGUUCAAGCAAUCGGGC [Fam1B.1 aminoacylation ribozyme variant]	10	2.81	2.42	2.04	3.13	2.18
AUUCACCUAGGGCAUCGGGUC [Fam2.2 aminoacylation ribozyme variant]	1.72	1.28	1.44	1.67	1.15	1.44
AAGUUUGCUAAUGGUCGGAAG [Fam3.1 aminoacylation ribozyme variant]	1.55	0.811	0.91	0.861	0.587	0.849
CGACACUUCAAGCAAUGGGUC [Fam1B.1 aminoacylation ribozyme variant]	0.676	0.702	0.836	0.935	0.638	0.718
CCACACGUCAAGCAACCGGUC [Fam1B.1 aminoacylation ribozyme variant]	0.895	1.4	2	1.19	0.823	1.51
CCACACUACAAGAAAUCGGUC [Fam1B.1 aminoacylation ribozyme variant]	0.911	1.01	0.8	0.898	1.2	0.716
AUUACCCUGGUGAUUGAGUGA [Fam2.1 aminoacylation ribozyme variant]	57.1	7.66	3.55	3.55	9.23	7.64
AAAUUUGCUAAUGGUCGCAAG [Fam3.1 aminoacylation ribozyme variant]	1.63	1.3	1.27	1.57	1.05	1.59
AUUCACCUAAGUCGUCGGGUG [Fam2.2 aminoacylation ribozyme variant]	10.1	2.18	1.87	1.88	2.02	2.55
AUUCACCUAUGUCAUCGGCUG [Fam2.2 aminoacylation ribozyme variant]	0.644	1.21	1.3	1.38	0.681	1.26
CUACUUCUAACAAUCGGUAUG [Fam1A.1 aminoacylation ribozyme variant]	0.695	0.537	0.533	0.584	0.428	0.529
CUACUUCACACUAUCGGUCUG [Fam1A.1 aminoacylation ribozyme variant]	0.94	0.588	0.857	0.733	0.49	0.713
AUUGCCCUGGUCCUCGAGUGA [Fam2.1 aminoacylation ribozyme variant]	23.4	3.5	2.05	1.94	3.66	3.42
AUUCAGCCAGGUCAUCGGGUG [Fam2.2 aminoacylation ribozyme variant]	59.7	8.99	5.4	5.25	9.91	10.7
CCAAACUUCAAGCAAUCCGUC [Fam1B.1 aminoacylation ribozyme variant]	0.895	1.02	1.31	1.27	0.8	1.09
CCGCACUUCAAGCAAUCGAUC [Fam1B.1 aminoacylation ribozyme variant]	1.66	0.335	0.658	0.521	0.822	0.449
AUUCACAUGGGUCAUCGGGUG [Fam2.2 aminoacylation ribozyme variant]	70.4	9.66	5.96	5.6	8.84	11.6
CUGCUUCAAACAAUGGGUCUG [Fam1A.1 aminoacylation ribozyme variant]	0.498	0.695	0.781	0.891	0.644	0.786
AUUACCCCGGUCAUCGAGCGA [Fam2.1 aminoacylation ribozyme variant]	1.22	1.61	1.71	1.32	1.45	1.17
AUUAUCCUGGUCAUCGUGUGA [Fam2.1 aminoacylation ribozyme variant]	28.6	3.54	2.05	2.15	5.91	3.83
CUACUGCAAACAAUCUGUCUG [Fam1A.1 aminoacylation ribozyme variant]	0.948	0.629	0.668	0.67	0.52	0.571
AUUAAACUGGUCAUCGAGUGA [Fam2.1 aminoacylation ribozyme variant]	4.94	4.15	2.42	2.71	6.94	4.35
CUACUCCAAACAAUCGUUCUG [Fam1A.1 aminoacylation ribozyme variant]	0.796	0.545	0.594	0.599	0.457	0.675
AUUCACCUUGGUCAUCGGAUG [Fam2.2 aminoacylation ribozyme variant]	0.466	0.633	0.845	0.768	0.477	0.714
CUACUGCGAACAAUCGGUCUG [Fam1A.1 aminoacylation ribozyme variant]	0.697	1.34	0.938	0.874	0.715	1.01

Sequence	self-aminoacylation (biotinyl-Phe-oxazolone)	self-aminoacylation (biotinyl-Met-oxazolone)	self-aminoacylation (biotinyl-Val-oxazolone)	self-aminoacylation (biotinyl-Ile-oxazolone)	self-aminoacylation (biotinyl-Trp-oxazolone)	self-aminoacylation (biotinyl-Leu-oxazolone)
CUACUCCAAACAAUCGGUCGG [Fam1A.1 aminoacylation ribozyme variant]	0.931	1.51	1.21	1.13	0.927	1.62
AAGUUGCCUAAUAGUCGCAAG [Fam3.1 aminoacylation ribozyme variant]	1.57	1.86	1.47	1.52	1.22	1.36
CCACACUUCAAGCGAUCCGUC [Fam1B.1 aminoacylation ribozyme variant]	0.723	1.06	1.24	1.16	1.08	1.25
AAGUUUGCUAAUUCUCGCAAG [Fam3.1 aminoacylation ribozyme variant]	0.747	1.06	0.999	1.26	2.64	1.08
CCACACUUCAAUCUAUCGGUC [Fam1B.1 aminoacylation ribozyme variant]	1.31	0.733	0.882	0.617	0.656	0.611
AAGUUUGCUACUAGUAGCAAG [Fam3.1 aminoacylation ribozyme variant]	0.93	0.972	0.962	0.917	1.18	0.992
AUUACCCUGGUGAUCGAGGGA [Fam2.1 aminoacylation ribozyme variant]	0.823	1.73	1.32	1.23	1.47	1.21
AAGUUUGCUAACAGUCCCAAG [Fam3.1 aminoacylation ribozyme variant]	1.94	1.06	0.81	1.13	1.85	0.801
CCACAUUUCAAGCAAGCGGUC [Fam1B.1 aminoacylation ribozyme variant]	1.22	1.06	1.26	1.3	0.779	1.15
AAGUUUGAUAAUUGUCGCAAG [Fam3.1 aminoacylation ribozyme variant]	1.5	1.14	1.13	1.35	0.973	1.27
AUUCGCCUAGGUCAUCGUGUG [Fam2.2 aminoacylation ribozyme variant]	3.31	1.45	1.05	1.04	0.823	1.35
CCACUCUUCAUGCAAUCGGUC [Fam1B.1 aminoacylation ribozyme variant]	0.763	0.848	0.807	0.919	0.901	0.657
CUUCACCUAGGUCAUUGGGUG [Fam2.2 aminoacylation ribozyme variant]	12.3	2.36	2.22	1.98	2.35	2.25
AUUACCCUGGUCAUAGAUUGA [Fam2.1 aminoacylation ribozyme variant]	0.659	0.809	1.04	0.777	0.629	0.719
CUACUUCACACAAUCGGUCGG [Fam1A.1 aminoacylation ribozyme variant]	0.779	1.4	0.981	1.26	1.09	1.36
CUACCUCAAACAAUCGGACUG [Fam1A.1 aminoacylation ribozyme variant]	1.27	0.915	0.833	0.872	1.05	0.614
CCACACUUUAAUCAAUCGGUC [Fam1B.1 aminoacylation ribozyme variant]	1.34	0.666	0.723	0.701	0.666	0.56
AAGUUUGCGAAUAGUAGCAAG [Fam3.1 aminoacylation ribozyme variant]	0.534	0.774	0.849	1.08	0.739	0.832
CGACUUCAAACUAUCGGUCUG [Fam1A.1 aminoacylation ribozyme variant]	1.76	1.1	1.34	1.15	1.07	1.07
UCACACGUCAAGCAAUCGGUC [Fam1B.1 aminoacylation ribozyme variant]	0.861	0.98	1.25	1.03	0.958	1.06
GUACUUUAAACAAUCGGUCUG [Fam1A.1 aminoacylation ribozyme variant]	1.61	1.06	1.21	1.28	2.08	1.01
AUUACACUGGUCAUCGAGUGG [Fam2.1 aminoacylation ribozyme variant]	1.26	1.89	1.16	1.3	1.2	1.72
CUACUUCGAACAAUCGGUAUG [Fam1A.1 aminoacylation ribozyme variant]	0.459	0.491	0.586	0.675	0.562	0.677
CUACUGCACACAAUCGGUCUG [Fam1A.1 aminoacylation ribozyme variant]	1.61	0.663	0.779	0.869	1.17	0.81
AAGUUCGUUAAUAGUCGCAAG [Fam3.1 aminoacylation ribozyme variant]	3.09	1.77	1.53	1.93	1.56	1.94
